Results taken from PubChem BioAssay AID624297 (National Center for Advancing Translational Sciences (NCATS), 2012).
The whole screen tested about 340,000 compounds, of which about 6,200 (1.8%) were called active. The shares of active, inactive and inconclusive entries below differ from those in the screen. Calls follow the shape of the dose curve; as a rule, active = well fitted activation curve with a large enough effect; inconclusive = small, poorly fitted or top-dose-only effect; inactive = no such curve, though single readings can be large or run the other way. Potencies of inconclusive entries are doubtful fits and often do not repeat.

assay: A quantitative high throughput screen for small molecules that induce DNA re-replication in SW480 colon adenocarcinoma cells.; also: nearly all actives have a fitted effect of over 55% in size; as to re-replication activation: % of control where 0% means no effect; settings: Hoechst DNA content imaging, 48 h; re-replication activation: at 46.1 µM (top of the series) unless noted
In short: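 Cells (250 per well) received 23 nL compound or DMSO by pin tool and were kept 48 hr at 37 C, 5% CO2. Nuclei were then stained with Hoechst for 40 min and scanned for DNA content.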
Potency is read from the fitted curve at half-maximal effect.

Compound | Potency | re-replication activation
Cc1ccccc1OCC(O)CNC1CCC(NCC(O)COc2ccccc2C)CC1 (stereo unspecified) | active: 4.11 µM | –
CCOc1ccc(NC(=S)N2CCN(S(=O)(=O)c3ccccc3)CC2)cc1 | inconclusive: 16.4 µM [activator, single point] | –
CCOC(=O)[C@@H]1[C@H]2COc3ccc(Br)cc3[C@@H]2N2C(=O)N(c3ccc(C)cc3)C(=O)[C@]12C | inconclusive: 18.4 µM [activator, single point] | –
COc1ccccc1-c1ccc(/C=C2/C=C(C)OC2=O)o1 | inconclusive: 16.4 µM [activator, single point] | –
CC(C)(C)c1ccc(C(=O)Nc2ccc(S(N)(=O)=O)cc2)cc1 | inconclusive: 29.1 µM [activator, single point] | –
O=[N+]([O-])c1cc(Cl)cc(/C=N/NC(=S)Nc2ccc(S(=O)(=O)N3CCOCC3)cc2)c1O | inconclusive: 23.1 µM [activator, partial curve, poor fit] | –
COc1ccc(-c2ccc(-c3noc(-c4ccccc4OC)n3)c(OC)n2)cc1 | inconclusive: 20.6 µM [activator, single point] | –
Cc1cc(C)c2nc(C)cc(N/N=C/c3ccc(O)cc3)c2c1 | active: 4.11 µM | –
COC(=O)c1cc(C(=O)c2c(C)cc3ccccn23)cc([N+](=O)[O-])c1 | inconclusive: 20.6 µM [activator, single point] | –
CCc1cc2ccc(C)cc2nc1SCC(=O)N1CCN(C(=O)c2ccco2)CC1 | inconclusive: 6.51 µM [activator, single point] | –
COC(=O)NCC(c1cccnc1)N1CCN(c2ccccc2F)CC1 (stereo unspecified) | inconclusive: 20.6 µM [activator, partial curve, poor fit] | –
CC(=O)NNC(=S)NC(=O)c1ccccc1 | – | inactive: -2.68%
COc1cccc(OC)c1C(=O)N1CCNCC1 | – | inactive: -3.09%
CC(C)c1ccc(/C=C2\SC(N3CCOCC3)=NC2=O)cc1 | – | inactive: 4.3%
CCC(=O)NC(c1ccc(OC)cc1)c1cc(Cl)c2cccnc2c1O (stereo unspecified) | active: 0.517 µM | –
Cc1cc(N2CCCC2)nc2ccc(NC(=S)NCCCOC(C)C)cc12 | inconclusive: 29.1 µM [activator, single point] | –
Cc1ccc(NC(=O)CN(C)C(=O)COC(=O)CNS(=O)(=O)c2ccc(Br)cc2Cl)cc1 | – | inactive: 2.3%
O=S(=O)(c1ccc(Br)cc1)c1nc(-c2ccccc2)oc1N1CCOCC1 | inconclusive: 16.4 µM [activator, single point] | –
O=C(C1CCCN(S(=O)(=O)c2cccc3nonc23)C1)N1CCC(Cc2ccccc2)CC1 (stereo unspecified) | inconclusive: 29.1 µM [activator, single point] | –
COc1ccc(C(=O)C2CCCN(S(=O)(=O)c3ccccc3F)C2)c(C)c1 (stereo unspecified) | inconclusive: 18.4 µM [activator, single point] | –
O=C(c1cnc2ccc3ccccc3c2c1)c1cc(F)ccc1O | active: 3.66 µM | –
Nc1cccc2c1C(=O)N(C(=O)/C=C/c1cccc(F)c1)C2=O | active: 18.4 µM | –
O=C1CC(N2CCOCC2)C(=O)N1c1cc(Cl)cc(Cl)c1 (stereo unspecified) | – | inactive: 0.717%
CCCCC(CCC(=O)O)(C(=O)OCC)c1csc(Nc2ccc(OCC)cc2)n1 (stereo unspecified) | – | inconclusive: -42% [activator]

4 compounds from above, sorted by heavy-atom count, low to high.
Compound | Potency | re-replication activation
COc1cccc(OC)c1C(=O)N1CCNCC1 | – | inactive: -3.09%
COC(=O)NCC(c1cccnc1)N1CCN(c2ccccc2F)CC1 (stereo unspecified) | inconclusive: 20.6 µM [activator, partial curve, poor fit] | –
CCc1cc2ccc(C)cc2nc1SCC(=O)N1CCN(C(=O)c2ccco2)CC1 | inconclusive: 6.51 µM [activator, single point] | –
Cc1ccc(NC(=O)CN(C)C(=O)COC(=O)CNS(=O)(=O)c2ccc(Br)cc2Cl)cc1 | – | inactive: 2.3%

(next part)

Compound | Potency | re-replication activation
CC(C)OCCCn1c(=NC(=O)c2ccncc2)c(C#N)cc2c(=O)n3ccccc3nc21 | – | inactive: -8.82%
CCCCc1ccc(N/C(N)=N/c2nc(C)cc(C)n2)cc1 | inconclusive: 13 µM [activator, partial curve, poor fit] | –
CCN(CC)S(=O)(=O)c1ccc(N/N=C(\C)c2ccncc2)c([N+](=O)[O-])c1 | – | inactive: -4.25%
CC(=C/C(=O)O)/C=C/c1ccc(Cl)o1 | – | inactive: 2.87%
COc1cc(/C=C2\SC(=S)N(CC(=O)NC3=NCCS3)C2=O)cc(OC)c1OC | – | inactive: 4.13%
Cc1cccc(CCNC(=O)C2CCN(S(=O)(=O)N3CCOCC3)CC2)c1 | inconclusive: 23.1 µM [activator, single point] | –
COc1ccc(NC(=O)c2cccc(N3C(=O)c4cccc([N+](=O)[O-])c4C3=O)c2)cc1 | – | inactive: 5.16%
COC(=O)CNC(c1ccccc1Cl)c1cc(Br)ccc1NC(=O)CCN1CCOCC1 (stereo unspecified) | inconclusive: 29.1 µM [activator, single point] | –
Cc1noc(C)c1COC(=O)CCCc1nc2ccccc2s1 | – | inactive: -1.18%
C=CCn1c2ccccc2n2nc(C)c(=O)nc12 | – | inactive: -2.25%
COC(=O)/C=C/C(=O)N1CCN(c2ccccc2)CC1 | – | inactive: -2.48%
CCOC(=O)c1c(C)[nH]c(C)c1S(=O)(=O)NCc1ccccc1C | – | inactive: -2.49%
CC(=O)Nc1ccc(N(C(=O)c2ccco2)C(C(=O)NC2CCCC2)c2ccncc2)cc1 (stereo unspecified) | – | inactive: 0.556%
COc1ccc(CCN(C)C2CC(=O)N(c3ccccc3)C2=O)cc1OC (stereo unspecified) | – | inactive: -19.1%
CCOc1ccccc1N1CCN(C(=O)c2ccc3c(c2)OCO3)CC1 | inconclusive: 16.4 µM [activator, single point] | –
CN(C(=O)Cn1nnc2ccccc2c1=O)C1CCCCC1 | – | inactive: -5.36%
Cc1ccc(NC(=O)c2c(C(F)(F)F)nn(C)c2SCc2ccc(Cl)cc2)cc1C | inconclusive: 29.1 µM [activator, single point] | –
COc1ccc(Cl)cc1N1C(=O)c2cccnc2C1=O | inconclusive: 2.91 µM [activator, single point] | –
COC(=O)N/N=C(\C)c1cccc(C(F)(F)F)c1 | – | inactive: -22%
COc1cccc2c1OCC(CN1CCN(Cc3ccccc3F)C(CCO)C1)=C2 (stereo unspecified) | inconclusive: 1.16 µM [activator, full curve, poor fit] | –
CSc1ccccc1C(=O)Nc1ccc2c(c1)OCO2 | inconclusive: 0.517 µM [activator, partial curve, poor fit] | –
CCN(CC)CCNC(Cc1ccccc1)c1cccc(OC)c1 (stereo unspecified) | inconclusive: 23.1 µM [activator, partial curve, poor fit] | –
CCCCCc1cc(=O)oc2c(C(CCN3CCCCC3)c3ccc(OC)cc3)c(OC)cc(OC)c12 (stereo unspecified) | inconclusive: 25.9 µM [activator, partial curve, poor fit] | –
Cc1noc(C)c1S(=O)(=O)N(CC(=O)NC(C)c1ccccc1)c1ccc(C(C)C)cc1 (stereo unspecified) | inconclusive: 0.82 µM [activator, full curve, poor fit] | –

Compound | Potency | re-replication activation
Cc1oc2cc3oc(=O)c(CC(=O)O)c(C)c3cc2c1-c1ccccc1 | – | inconclusive: 57.1% [activator]
COCCOc1cc(NCc2ccccc2)c2ncn(C(C)C)c2c1 | inconclusive: 14.6 µM [activator, single point] | –
CC(=O)Oc1ccc(-c2ccc(C(=O)NCCc3ccc(S(N)(=O)=O)cc3)cc2)cc1 | inconclusive: 2.91 µM [activator, full curve] | –
COc1ccccc1C(=O)Nc1ccc2c(c1)nc(CCNC(=O)c1ccco1)n2C | active: 5.17 µM | –
O=C(c1ccccn1)c1conc1C(=O)c1ccc(Br)cc1 | inconclusive: 18.4 µM [activator, partial curve, poor fit] | –
Cc1n[nH]c(C)c1S(=O)(=O)N1CCCC(C(=O)N2CCN(c3ccc(Cl)cc3)CC2)C1 (stereo unspecified) | inconclusive: 12.6 µM [activator, partial curve, poor fit] | –
C[C@@H]1CN([C@@H](C)CO)C(=O)c2cc(NC(=O)Nc3ccccc3)ccc2O[C@H]1CN(C)C(=O)Nc1cccc2ccccc12 | – | inactive: 8.87%
CCc1ccc2oc(C(=O)Nc3cccnc3)c(C)c2c1 | inconclusive: 29.1 µM [activator, single point] | –
CCn1c(C)c(C)c2cc(C(=O)N3CCN(c4ccccc4)CC3)ccc21 | inconclusive: 29.1 µM [activator, single point] | –
CCCCCCCCCCOC(=O)Cn1c(COc2ccccc2C)[n+](C)c2ccccc21 | inconclusive: 29.1 µM [activator, single point] | –
CCOC(=O)N1CCN(CCC(=O)c2ccc(OC)cc2)CC1 | inconclusive: 29.1 µM [activator, single point] | –
CCCc1nc2ccccc2c(C(=O)OCC(=O)NCc2ccc3c(c2)OCO3)c1CC | – | inactive: 9.54%
COc1ccc(C2C=C(c3ccccc3)Nc3nnnn32)cc1 (stereo unspecified) | – | inactive: 14.4%
COc1ccc(C(=O)N/N=C2/SCC(=O)N2Cc2ccc3c(c2)OCO3)cc1OC | inconclusive: 29.1 µM [activator, partial curve, poor fit] | –
Cc1cc(N2CCN(C(=O)c3ccco3)CC2)n2nc(-c3cccc(F)c3)cc2n1 | inconclusive: 18.4 µM [activator, single point] | –
COc1ccccc1NS(=O)(=O)c1cc(NC(=O)c2ccncc2)ccc1N1CCCC1 | – | inactive: -1.04%
Cc1[nH]c2ccccc2c1/C=C/C(=O)c1ccccc1 | active: 18.4 µM | –
COc1ccc(N(CC(C)C)S(=O)(=O)c2nnc(NC(=O)c3ccco3)s2)cc1 | – | inactive: 8.67%
O=C(CCN1CCOCC1)NNC(=O)Nc1cccc([N+](=O)[O-])c1 | inconclusive: 23.1 µM [activator, single point] | –
CN(CC(=O)Nc1ccc(N2CCOCC2)cc1)CC(=O)Nc1ccc(C(F)(F)F)cc1 | – | inactive: -10.6%
CCOC(=O)/C(=C\c1ccc(N2CCC(c3ccccc3)=N2)cc1)C(C)=O | active: 1.46 µM | –
CCCCc1nnc(NC(=O)c2ccc(OCc3c(C)noc3C)cc2)s1 | inconclusive: 18.4 µM [activator, single point] | –
COc1cc(NC(=O)c2ccccc2F)ccc1NC(=O)c1cc2ccccc2o1 | inconclusive: 2.06 µM [activator, full curve, poor fit] | –
